Source: patent publication US6620616B1, “Nucleic acids encoding nitric oxide synthase variants” (The Cleveland Clinic Foundation, priority 2000, dated 2003)

Experiment: NADPH oxidation
Format: biochemical
Details: theoretical minimum 1.5
Description: The initial rate of NO synthesis, NADPH oxidation, or cytochrome c reduction by wild type and mutants was quantitated at 25° C. as described in Abu-Soud et al. (1997) J. Biol. Chem 272: 10769-10772. H2O2-dependent nNOS oxidation of NOHA to nitrite was assayed in 96-well microplates at 30° C. The assay volume was 100 μl and contained 40 mM EPPS, pH 7.6, 250 nM nNOS or mutants, 1 mM NOHA, 1 mM DTT, 25 units/ml superoxide dismutase 0.5 mM EDTA, and 4 μM H4B. Reactions were initiated by adding 30 mM H2O2 and stopped after 10 min by adding 1300 units of catalase. Nitrite was detected at 550 nm using the Griess reagent (100 μL) and quantitated based on nitrite standards.

Substance: W409F: rat nNOS variant with phenylalanine (F) at position 409 in place of tryptophan, His6-tagged, expressed in E. coli
- calculated NADPH stoichiometry: 1.6 mol of NADPH oxidized/mol of NO generated from Arg

Substance: W409Y: rat nNOS variant with tyrosine (Y) at position 409 in place of tryptophan, His6-tagged, expressed in E. coli
- calculated NADPH stoichiometry: 1.5 mol of NADPH oxidized/mol of NO generated from Arg

Substance: nNOS: wild-type rat neuronal nitric oxide synthase, His6-tagged, expressed in E. coli; non-variant comparator [reference compound]
- calculated NADPH stoichiometry: 1.7 mol of NADPH oxidized/mol of NO generated from Arg
